Data as given in PubChem BioAssay AID1224827 (NIAID, 2016).
Purpose: 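Confirm genes whose knock-down changes LPS-driven TNF promoter activity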 (follow-up of hits). Cells: RAW264.7 G9 mouse macrophage reporter clone. Reagents: single siRNA against mouse genes, 100 nM siRNA. Duration: siRNA for 2 days, then LPS about 16 h. Conditions: bacterial lipopolysaccharide (LPS), 10 ng/ml, cells fixed after overnight (about 16 h) stimulation. Measurement: 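TNF promoter reporter red fluorescence in nuclei, background subtracted, normalised per plate and to non-targeting control siRNA, as z-scores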. Scale: TNF reporter z-score, mean: higher = stronger Tnf promoter reporter signal; gene median z, three same-vendor siRNAs: higher = stronger Tnf reporter signal for the gene. Hit rule: 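Active siRNA: replicate-mean z-score of 2 or more, or -2 or less; no calls for control wells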.
The whole screen tested about 3,800 reagents; shown is an unselected part. About 2,200 of them (57%) were called active. 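Active means a strong reporter change in either direction; calls are per siRNA, not per gene; qiagen siRNAs gave weaker effects.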 The numbers tell different reagents against one gene apart. Not all columns of the deposit are shown.

Which result is listed for Pla2g4a #1?
TNF reporter z-score, mean: 3.85; gene median z, three same-vendor siRNAs: -4.14; Call: active

How did the screen score Pla2g4a #2?
TNF reporter z-score, mean: -4.6; gene median z, three same-vendor siRNAs: -4.14; Call: active

Which result is listed for Pla2g4a #3?
TNF reporter z-score, mean: -4.62; gene median z, three same-vendor siRNAs: -4.14; Call: active

With Pla2g4a #4, what was measured?
TNF reporter z-score, mean: 3.89; gene median z, three same-vendor siRNAs: 2.45; Call: active

For Pla2g4a #5, what does the deposit list?
TNF reporter z-score, mean: 2.53; gene median z, three same-vendor siRNAs: 2.45; Call: active

With Pla2g4a #6, what was measured?
TNF reporter z-score, mean: 2.22; gene median z, three same-vendor siRNAs: 2.45; Call: active

How did the screen score Prdm8 #1?
TNF reporter z-score, mean: 6.98; gene median z, three same-vendor siRNAs: -0.516; Call: active

What is on record for Prdm8 #2?
TNF reporter z-score, mean: -0.527; gene median z, three same-vendor siRNAs: -0.516; Call: inactive

What did the screen give for Prdm8 #3?
TNF reporter z-score, mean: -1.92; gene median z, three same-vendor siRNAs: -0.516; Call: inactive

With Prdm8 #4, what was measured?
TNF reporter z-score, mean: 1.24; gene median z, three same-vendor siRNAs: -0.783; Call: inactive

For Prdm8 #5, what does the deposit list?
TNF reporter z-score, mean: -1.14; gene median z, three same-vendor siRNAs: -0.783; Call: inactive

With Prdm8 #6, what was measured?
TNF reporter z-score, mean: -2.71; gene median z, three same-vendor siRNAs: -0.783; Call: active

Limited to “gene median z, three same-vendor siRNAs” (2 entries from above):
Pla2g4a #2 = -4.14
Pla2g4a #3 = -4.14
